Results deposited as PubChem BioAssay AID1224830 (NIAID, 2016)
The whole screen tested about 18,000 reagents; below is a part drawn at random. About 2,900 of all reagents (16%) count as active. 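Calls are made per well; low scores hint the gene aids the LPS response, high scores that it dampens it.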 Repeated entries: four replicate wells of each siRNA pool.

- Purpose: 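Regulators of TLR4 signalling towards TNF-alpha in macrophage-like cells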 (primary screen)
- Cells: human THP-1 monocytic leukaemia cells, TNF dual-luciferase reporter clone, PMA-differentiated to macrophage-like cells
- Reagent: siRNA pool against human genes, 50 nM
- Time to read-out: LPS for 4 h, given about 3 days after siRNA transfection
- Treatment: bacterial LPS (TLR4 ligand), 10 ng/ml
- Measured: 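TNF firefly reporter luminescence divided by renilla, normalised to the plate median, then turned into a robust z-score for each replicate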
- Scale: TNF reporter robust z-score: higher = stronger TNF reporter response to LPS
- Call rule: 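a well is active when its z-score exceeds 2.8 or falls below -1.5; control wells carry no call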

Depletion of MIA gave: TNF reporter robust z-score -0.24; inactive. For MIA the deposit lists TNF reporter robust z-score -0.07; inactive. After knock-down of MIA, the screen gave TNF reporter robust z-score -0.64; inactive. After knock-down of ZNF560 the results were TNF reporter robust z-score 1.11; inactive. ZNF560 scored TNF reporter robust z-score 1.03; inactive. For ZNF560 the deposit lists TNF reporter robust z-score -0.19; inactive.

Against ZNF560 the deposit lists TNF reporter robust z-score -0.56; inactive. With knock-down of UGT1A3 the results were TNF reporter robust z-score -0.36; inactive. After knock-down of UGT1A3, the record shows TNF reporter robust z-score -0.43; inactive. Against UGT1A3, the values are TNF reporter robust z-score -0.61; inactive. UGT1A3 scored TNF reporter robust z-score 0.22; inactive. Against LMBRD1 the deposit lists TNF reporter robust z-score 0.83; inactive.

After knock-down of LMBRD1 the results were TNF reporter robust z-score 0.39; inactive. Against LMBRD1, the entry reads TNF reporter robust z-score 1.52; inactive. After knock-down of LMBRD1 the results were TNF reporter robust z-score 0.37; inactive. After knock-down of NIPSNAP3A, the record shows TNF reporter robust z-score -1.07; inactive. NIPSNAP3A gave TNF reporter robust z-score -0.22; inactive. For NIPSNAP3A, the entry reads TNF reporter robust z-score -0.71; inactive.

After knock-down of NIPSNAP3A, the record shows TNF reporter robust z-score 1.82; inactive. For SUCNR1, the entry reads TNF reporter robust z-score 0.8; inactive. After knock-down of SUCNR1 the results were TNF reporter robust z-score 1.22; inactive. After knock-down of SUCNR1, the record shows TNF reporter robust z-score 1.03; inactive. ZNF10 showed TNF reporter robust z-score -1.53; active. Against ZNF10, the entry reads TNF reporter robust z-score -0.75; inactive.

Silencing of ZNF10 gave: TNF reporter robust z-score -0.86; inactive. ZNF10 showed TNF reporter robust z-score 1.26; inactive. For TAPBPL, the values are TNF reporter robust z-score -1.21; inactive. TAPBPL scored TNF reporter robust z-score -0.87; inactive. For TAPBPL, the entry reads TNF reporter robust z-score -0.9; inactive. TAPBPL showed TNF reporter robust z-score -1.13; inactive.

TRPT1 scored TNF reporter robust z-score -1.28; inactive. TRPT1 gave TNF reporter robust z-score -0.92; inactive. TRPT1 gave TNF reporter robust z-score -1.57; active. Silencing of TRPT1 resulted in: TNF reporter robust z-score -0.93; inactive.

6 consecutive entries from above, quoted:
NIPSNAP3A | TNF reporter robust z-score: -0.22; Call: inactive
NIPSNAP3A | TNF reporter robust z-score: -0.71; Call: inactive
NIPSNAP3A | TNF reporter robust z-score: 1.82; Call: inactive
SUCNR1 | TNF reporter robust z-score: 0.8; Call: inactive
SUCNR1 | TNF reporter robust z-score: 1.22; Call: inactive
SUCNR1 | TNF reporter robust z-score: 1.03; Call: inactive

More records follow:
With knock-down of DUSP13B, the record shows TNF reporter robust z-score -0.69; inactive. Against DUSP13B the deposit lists TNF reporter robust z-score 0.11; inactive. After knock-down of DUSP13B the results were TNF reporter robust z-score 0.62; inactive. DUSP13B gave TNF reporter robust z-score -1.38; inactive. OR4K13 gave TNF reporter robust z-score 4.41; active. After knock-down of OR4K13, the record shows TNF reporter robust z-score 3.34; active.

Knock-down of OR4K13 resulted in: TNF reporter robust z-score 1.67; inactive. OR4K13 showed TNF reporter robust z-score 1.98; inactive. Silencing of SPC25 gave: TNF reporter robust z-score 0.23; inactive. Against SPC25, the entry reads TNF reporter robust z-score 1.29; inactive. After knock-down of SPC25, the record shows TNF reporter robust z-score 2.13; inactive. SPC25 gave TNF reporter robust z-score 1.36; inactive.

HDAC6 gave TNF reporter robust z-score 1.84; inactive. For HDAC6 the deposit lists TNF reporter robust z-score 1.85; inactive. Depletion of HDAC6 resulted in: TNF reporter robust z-score 1.69; inactive. HDAC6 scored TNF reporter robust z-score -0.36; inactive. Against BPIFC, the values are TNF reporter robust z-score -0.18; inactive. Silencing of BPIFC came out at: TNF reporter robust z-score 0.03; inactive.

BPIFC showed TNF reporter robust z-score 0.01; inactive. Knock-down of BPIFC resulted in: TNF reporter robust z-score 0.61; inactive. C5orf15 gave TNF reporter robust z-score 0.45; inactive. Depletion of C5orf15 resulted in: TNF reporter robust z-score 1.32; inactive. C5orf15 gave TNF reporter robust z-score 0.93; inactive. With knock-down of C5orf15 the results were TNF reporter robust z-score -0.21; inactive.

Against TPM4 the deposit lists TNF reporter robust z-score -0.64; inactive. Silencing of TPM4 came out at: TNF reporter robust z-score -0.67; inactive. Against TPM4, the values are TNF reporter robust z-score -0.52; inactive. After knock-down of TPM4 the results were TNF reporter robust z-score -0.42; inactive.
